# Results published in the supplement of paper PMC8728848.
# This is one part of the list.
# B1: SspB A3vp1 (Streptococcus gordonii), Q54186 (protein)
# chain: MTNEADYQAKLAAYQTELARVQKANADAKATYEKAVEDNKAKNAAIKAENEEIKQRNAVAKTDYEAKLAKYEADLAKYKKEFAAYTAALAEAESKKKQDGYLSEPRSQSLNFKSEPNAIRTIDSSVHQYGQQELDALVKSWGISPTNPDRKKSRAYSYFNAINSNNTYAKLVLEKDKPVDVTYTGLKNSSFNGKKISKVVYTYTLKETGFNDGTKMTMFASSDPTVTAWYNDYFTSTNINVKVKFYDEEGQLMNLTGGLVNFSSLNRGNGSGAIDKDAIESVRNFNGRYIPISGSSIKIHENNSAYADSSNAEKSLGARWNTSEWDTTSSPNNWYGAIVGEITQSEISFNMASSKSGNIWFAFNSNINAIGVPTKPVAPTAPTQPMYETEKPLEPAPVAPSYENEPTPPVKTPDQPEPSKPAAALEHHHHHH
# Key:
# Test in all cases: glycan array binding signal (z-score within array); higher = stronger binding
# Details in all cases: glycan notation: IUPAC condensed, linker removed
# [1] = target: Gal(b1-3)[Fuc(a1-4)]GlcNAc(b1-6)GalNAc
# In short: (§1)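 Glycan array data came from 3228 arrays in the Consortium for Functional Glycomics database, and only arrays with an available protein sequence were kept. Glycan names were put into IUPAC-condensed notation, and columns mapping to the same glycan were averaged. The binding signal is a within-array Z-score, averaged across arrays of one protein sequence run at different concentrations or buffers and across linkers. A negative Z-score can be read as non-binding.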
# [2] = target: Gal(b1-3)[GlcNAc(b1-6)]GalNAc
# In short: as §1
# [3] = target: Gal(b1-3)[Neu5Ac(a2-6)]GalNAc
# In short: as §1
# [4] = target: Gal(b1-3)[Neu5Ac(a2-6)]GlcNAc(b1-4)Gal(b1-4)Glc
# In short: as §1
# [5] = target: Gal(b1-3)[Neu5Ac(b2-6)]GalNAc
# In short: as §1
# Gal(b1-4)Gal = target: Gal(b1-4)Gal
# In short: as §1
# [6] = target: Gal(b1-4)GalNAc(a1-3)[Fuc(a1-2)]Gal(b1-4)GlcNAc
# In short: as §1
# [7] = target: Gal(b1-4)GalNAc(b1-3)[Fuc(a1-2)]Gal(b1-4)GlcNAc
# In short: as §1
# Gal(b1-4)Glc = target: Gal(b1-4)Glc
# In short: as §1
# Gal(b1-4)Glc6S = target: Gal(b1-4)Glc6S
# In short: as §1
# Gal(b1-4)GlcNAc = target: Gal(b1-4)GlcNAc
# In short: as §1
# [8] = target: Gal(b1-4)GlcNAc(a1-6)Gal(b1-4)GlcNAc
# In short: as §1
# Gal(b1-4)GlcNAc(b1-2)Man = target: Gal(b1-4)GlcNAc(b1-2)Man
# In short: as §1
# [9] = target: Gal(b1-4)GlcNAc(b1-2)Man(a1-3)Man(b1-4)GlcNAc(b1-4)GlcNAc
# In short: as §1
# [10] = target: Gal(b1-4)GlcNAc(b1-2)Man(a1-3)[Gal(b1-4)GlcNAc(b1-2)Man(a1-6)]Man(b1-4)GlcNAc(b1-4)GlcNAc
# In short: as §1
# [11] = target: Gal(b1-4)GlcNAc(b1-2)Man(a1-3)[Gal(b1-4)GlcNAc(b1-2)Man(a1-6)]Man(b1-4)GlcNAc(b1-4)[Fuc(a1-6)]GlcNAc
# In short: as §1
# [12] = target: Gal(b1-4)GlcNAc(b1-2)Man(a1-3)[Gal(b1-4)GlcNAc(b1-2)Man(a1-6)][Gal(b1-4)GlcNAc(b1-4)]Man(b1-4)GlcNAc(b1-4)[Fuc(a1-6)]GlcNAc
# In short: as §1
# [13] = target: Gal(b1-4)GlcNAc(b1-2)Man(a1-3)[Gal(b1-4)GlcNAc(b1-2)Man(a1-6)][GlcNAc(b1-4)]Man(b1-4)GlcNAc(b1-4)[Fuc(a1-6)]GlcNAc
# In short: as §1
# [14] = target: Gal(b1-4)GlcNAc(b1-2)Man(a1-3)[GlcNAc(b1-2)Man(a1-6)]Man(b1-4)GlcNAc(b1-4)GlcNAc
# In short: as §1
# [15] = target: Gal(b1-4)GlcNAc(b1-2)Man(a1-3)[GlcNAc(b1-4)][Gal(b1-4)GlcNAc(b1-2)Man(a1-6)]Man(b1-4)GlcNAc(b1-4)GlcNAc
# In short: as §1
# [16] = target: Gal(b1-4)GlcNAc(b1-2)Man(a1-3)[Man(a1-6)]Man(b1-4)GlcNAc(b1-4)GlcNAc
# In short: as §1
# [17] = target: Gal(b1-4)GlcNAc(b1-2)Man(a1-6)Man(b1-4)GlcNAc(b1-4)GlcNAc
# In short: as §1
# [18] = target: Gal(b1-4)GlcNAc(b1-2)Man(a1-6)[GlcNAc(b1-2)Man(a1-3)]Man(b1-4)GlcNAc(b1-4)GlcNAc
# In short: as §1
# [19] = target: Gal(b1-4)GlcNAc(b1-2)Man(a1-6)[Man(a1-3)]Man(b1-4)GlcNAc(b1-4)GlcNAc
# In short: as §1
# [20] = target: Gal(b1-4)GlcNAc(b1-2)[Gal(b1-4)GlcNAc(b1-4)]Man(a1-3)[Gal(b1-4)GlcNAc(b1-2)Man(a1-6)]Man(b1-4)GlcNAc(b1-4)GlcNAc
# In short: as §1
# [21] = target: Gal(b1-4)GlcNAc(b1-2)[Gal(b1-4)GlcNAc(b1-4)]Man(a1-3)[Gal(b1-4)GlcNAc(b1-2)[Gal(b1-4)GlcNAc(b1-6)]Man(a1-6)]Man(b1-4)GlcNAc(b1-4)GlcNAc
# In short: as §1
# [22] = target: Gal(b1-4)GlcNAc(b1-2)[Gal(b1-4)GlcNAc(b1-4)]Man(a1-3)[GlcNAc(b1-4)][Gal(b1-4)GlcNAc(b1-2)Man(a1-6)]Man(b1-4)GlcNAc(b1-4)GlcNAc
# In short: as §1
# [23] = target: Gal(b1-4)GlcNAc(b1-2)[Gal(b1-4)GlcNAc(b1-4)]Man(a1-3)[GlcNAc(b1-4)][Gal(b1-4)GlcNAc(b1-2)[Gal(b1-4)GlcNAc(b1-6)]Man(a1-6)]Man(b1-4)GlcNAc(b1-4)GlcNAc
# In short: as §1
# [24] = target: Gal(b1-4)GlcNAc(b1-2)[Gal(b1-4)GlcNAc(b1-6)]Man(a1-6)[Gal(b1-4)GlcNAc(b1-2)Man(a1-3)]Man(b1-4)GlcNAc(b1-4)GlcNAc
# In short: as §1
# [25] = target: Gal(b1-4)GlcNAc(b1-2)[Gal(b1-4)GlcNAc(b1-6)]Man(a1-6)[Gal(b1-4)GlcNAc(b1-2)Man(a1-3)]Man(b1-4)GlcNAc(b1-4)[Fuc(a1-6)]GlcNAc
# In short: as §1
# [26] = target: Gal(b1-4)GlcNAc(b1-2)[Gal(b1-4)GlcNAc(b1-6)]Man(a1-6)[GlcNAc(b1-4)][Gal(b1-4)GlcNAc(b1-2)Man(a1-3)]Man(b1-4)GlcNAc(b1-4)GlcNAc
# In short: as §1
# [27] = target: Gal(b1-4)GlcNAc(b1-2)[Gal(b1-4)GlcNAc(b1-6)]Man(a1-6)[GlcNAc(b1-4)][Gal(b1-4)GlcNAc(b1-2)[Gal(b1-4)GlcNAc(b1-4)]Man(a1-3)]Man(b1-4)GlcNAc(b1-4)[Fuc(a1-6)]GlcNAc
# In short: as §1
# [28] = target: Gal(b1-4)GlcNAc(b1-3)Gal(b1-3)GalNAc
# In short: as §1
# [29] = target: Gal(b1-4)GlcNAc(b1-3)Gal(b1-3)GlcNAc
# In short: as §1
# [30] = target: Gal(b1-4)GlcNAc(b1-3)Gal(b1-4)Glc
# In short: as §1
# [31] = target: Gal(b1-4)GlcNAc(b1-3)Gal(b1-4)GlcNAc
# In short: as §1
# [32] = target: Gal(b1-4)GlcNAc(b1-3)Gal(b1-4)GlcNAc(b1-2)Man(a1-3)[Gal(b1-4)GlcNAc(b1-3)Gal(b1-4)GlcNAc(b1-2)Man(a1-6)]Man(b1-4)GlcNAc(b1-4)GlcNAc
# In short: as §1
# [33] = target: Gal(b1-4)GlcNAc(b1-3)Gal(b1-4)GlcNAc(b1-2)Man(a1-3)[Gal(b1-4)GlcNAc(b1-3)Gal(b1-4)GlcNAc(b1-2)Man(a1-6)]Man(b1-4)GlcNAc(b1-4)[Fuc(a1-6)]GlcNAc
# In short: as §1
binder,measurement,setting,value
B1,glycan array binding signal (z-score),[1],0.696
same,glycan array binding signal (z-score),[2],-0.11
same,glycan array binding signal (z-score),[3],0.056
same,glycan array binding signal (z-score),[4],-0.063
same,glycan array binding signal (z-score),[5],-0.723
same,glycan array binding signal (z-score),Gal(b1-4)Gal,-0.088
same,glycan array binding signal (z-score),[6],-1.24
same,glycan array binding signal (z-score),[7],-0.433
same,glycan array binding signal (z-score),Gal(b1-4)Glc,0.149
same,glycan array binding signal (z-score),Gal(b1-4)Glc6S,1.33
same,glycan array binding signal (z-score),Gal(b1-4)GlcNAc,-0.53
same,glycan array binding signal (z-score),[8],-0.728
same,glycan array binding signal (z-score),Gal(b1-4)GlcNAc(b1-2)Man,0.562
same,glycan array binding signal (z-score),[9],-0.334
same,glycan array binding signal (z-score),[10],-0.969
same,glycan array binding signal (z-score),[11],0.515
same,glycan array binding signal (z-score),[12],3.03
same,glycan array binding signal (z-score),[13],-0.295
same,glycan array binding signal (z-score),[14],-0.379
same,glycan array binding signal (z-score),[15],-0.128
same,glycan array binding signal (z-score),[16],1.2
same,glycan array binding signal (z-score),[17],-0.26
same,glycan array binding signal (z-score),[18],-0.156
same,glycan array binding signal (z-score),[19],0.42
same,glycan array binding signal (z-score),[20],-0.863
same,glycan array binding signal (z-score),[21],0.805
same,glycan array binding signal (z-score),[22],-0.012
same,glycan array binding signal (z-score),[23],1.91
same,glycan array binding signal (z-score),[24],1.82
same,glycan array binding signal (z-score),[25],0.793
same,glycan array binding signal (z-score),[26],0.194
same,glycan array binding signal (z-score),[27],-0.766
same,glycan array binding signal (z-score),[28],0.021
same,glycan array binding signal (z-score),[29],-0.837
same,glycan array binding signal (z-score),[30],-0.159
same,glycan array binding signal (z-score),[31],0.287
same,glycan array binding signal (z-score),[32],1.65
same,glycan array binding signal (z-score),[33],0.965

# Reformatted as tab-separated lines: part of the list above.
binder	measurement	setting	value
B1	glycan array binding signal (z-score)	[17]	-0.26
same	glycan array binding signal (z-score)	[18]	-0.156
same	glycan array binding signal (z-score)	[19]	0.42
